Percent effect of library compounds

Sequences of proteins named here, by UniProt entry; tags and fusion partners are left off. Residues count along the entry.
UniProt Q4DA54, 1-478: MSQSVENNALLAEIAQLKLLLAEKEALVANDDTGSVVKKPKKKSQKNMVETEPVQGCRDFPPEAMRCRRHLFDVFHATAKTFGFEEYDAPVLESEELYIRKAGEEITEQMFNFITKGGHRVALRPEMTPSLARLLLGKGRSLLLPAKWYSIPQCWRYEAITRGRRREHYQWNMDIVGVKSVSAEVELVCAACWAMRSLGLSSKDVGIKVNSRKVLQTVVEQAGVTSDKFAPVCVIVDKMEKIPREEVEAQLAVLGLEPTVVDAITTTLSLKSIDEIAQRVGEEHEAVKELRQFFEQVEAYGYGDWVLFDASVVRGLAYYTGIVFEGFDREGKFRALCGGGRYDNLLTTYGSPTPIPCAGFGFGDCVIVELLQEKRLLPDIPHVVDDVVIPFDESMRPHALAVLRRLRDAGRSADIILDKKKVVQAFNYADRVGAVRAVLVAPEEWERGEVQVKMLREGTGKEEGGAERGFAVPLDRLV

Measurements from “University of Dundee, Small-Polar-MMV Screening Library” (2021), ChEMBL document CHEMBL3988442.

Values are the deposited “Percent Effect”, in %. The controls that fix the scale are not given in the record; negative values are as filed. Compounds were drawn at random from those tested, without regard to their results.

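Enzyme assay of histidyl-tRNA synthetase; the read-out is not stated. Target: Histidine-tRNA ligase, Trypanosoma cruzi CL Brener (UniProt Q4DA54). Compounds at 30 µM. Higher reads as stronger inhibition (inferred: compounds with an IC50 in retests scored well above the rest). Of about 69,000 compounds tested this way, about 31 (0.045%) reached 50% or more in at least one test.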

SMILES	effect
CN(C(=O)Cn1nc(-c2ccc(F)cc2)oc1=O)C1CCS(=O)(=O)C1 (configuration not stated)	-3.252%
COCCN1CCN(C(=O)C2CC=CC2)Cc2cccnc21	1.622%
O=C1CC(NCc2cccc(O)c2)CN1CCc1cccc(Cl)c1 (configuration not stated)	1.005%
c1cc(CN2C[C@@H]3OCCN(CCN4CCCC4)[C@@H]3C2)ccn1	3.922%
Cc1c(-c2cc(C(=O)N3CCc4ncc(Cl)cc4C3)on2)cnn1C	6.061%
CCSCCNC(=O)c1cnc(-c2ccccc2)nc1O	2.041%
Cc1ccc(OCC(O)COC2CCOCC2)c(Cl)c1 (configuration not stated)	3.017%
Cc1nc(NCCSc2cnn[nH]2)c2cccnc2n1	-3.743%
CN(CC(=O)Nc1ccc(Br)cn1)C(=O)C(C)(C)C	7.91%
Cc1cc(C(=O)NC(C)CC(=O)c2ccco2)[nH]n1 (configuration not stated)	-0.8929%
CN(C)c1cc(CNC(=O)c2ccc(O)nc2)ccn1	2.041%
Cc1nc[nH]c1CN(Cc1ccc(F)cc1)C1CC(C)(C)NC(C)(C)C1	1.149%
COc1ncc(C(F)(F)F)c(C(=O)O)c1Cl	1.042%
CC(C)C(=O)N1CCCC2(C1)CN(c1nncs1)CCO2 (configuration not stated)	-1.105%
COc1ccc(N(c2ccccc2)c2ccc(C(=O)O)s2)cc1	-5.78%
CCOC(=O)c1cnn(C2CCN(C(=O)CCC(C)C)CC2)c1N	-11.06%
Cc1ccccc1C(C)(C)CNC(=O)CN(C)c1cnccn1	1.571%
COCCN(CCOC)C(=O)c1c[nH]nc1-c1cccc(F)c1	3.004%
Cc1oc(C(=O)Nc2ccccc2F)cc1S(N)(=O)=O	8.081%
Cc1nonc1CN1CC[C@@](O)(C2CCC2)[C@H](C)C1	-1.235%
O=S(=O)(NCc1ccnc(-n2ccnc2)c1)c1cncc(F)c1	8.287%
Cn1cc(CN2CCO[C@H]3CN(Cc4ccsc4)C[C@H]32)cn1	2.174%
O=C(NCCc1cc(N2CCOCC2)nc(N2CCCC2)n1)C1CC1	5.65%
O=C(c1cccs1)N1CCC2(CC1)CCN(S(=O)(=O)C1CC1)CC2	7.538%
CC(C)(C)c1ncc2c(n1)CN(C(=O)c1ccc(C#N)nc1)C2	4.082%
CCn1nnc(NCc2ccccc2OCc2ccc(Cl)cc2)n1	-16%
Cc1ccccc1SCC(=O)N[C@H]1CC[C@H](n2cnnc2)CC1	3.03%
CCOCCCNC(=O)c1cccn1Cc1cccnc1	11.73%
O=C(c1cncc(N2CCCC3(CCNCC3)CC2)n1)N1CCCCC1	13.64%
Cc1nnc(NCC(c2ccco2)N(C)C)c(C#N)c1C (configuration not stated)	21.08%
O=C(N1CCOCC1)[C@@]12CCO[C@@H]1CCN(CCN1CCCCC1)C2	-1.639%
C1CCC(c2nc3c(c(N4CCN5CCCC5C4)n2)CCNCC3)C1 (configuration not stated)	7.097%
COc1ccc(Cl)cc1C(=O)NCC1CCN(C(=O)c2ccoc2)CC1	7.143%
Cn1ncc2c(N3CCCC(C)(O)C3)nc(-c3cccnc3)nc21 (configuration not stated)	-53.6%
CCc1ncnc2c1CCN(C(=O)Cc1ccccn1)CC2	-4.918%
CCS(=O)(=O)CCNC(=O)NCc1ccccc1-n1cccn1	5.172%
COc1ccc(OCCNCc2c(C)nn(C)c2N(C)C)cc1	7.647%
COc1cc(CNC(=O)c2cc(S(C)(=O)=O)ccc2C)ccn1	6.637%
O=C(c1cccnc1)N1CCCC2(CCN(c3ccsc3)C2=O)C1 (configuration not stated)	3.261%
CN(C)CCN1CC[C@H]2[C@@H]1CCN2Cc1ccc2c(c1)OCO2	5.825%
CCc1csc(C2CCCN(C(=O)c3ccnc(N(C)C)c3)C2)n1 (configuration not stated)	0%
CCC[C@H]1CN(S(C)(=O)=O)C[C@@H]1NC(=O)Cc1ccc(OC)cc1	3.509%
CN(C)C(=O)CN1CCCCC1c1nc(N)ncc1-c1cccc(F)c1 (configuration not stated)	-2.732%
CN1CCN(CCCNC(=O)c2nc3ccccc3c(=O)[nH]2)CC1	9.942%
CN(C)C(=O)c1cnc(-c2ccc3c(c2)OCO3)s1	1.754%
Cc1cc(C)nc(Nc2cccc(C3CCCN(CCO)C3)n2)n1 (configuration not stated)	8.889%
Cc1nnc2n1CCN(C(=O)c1cc(C)n(-c3ccccn3)c1C)C2	-3.03%
COc1ncccc1CNC(=O)N(Cc1ccccc1F)C1CC1	5.155%
CNC(=O)CN1CC[C@H]2CN(C(=O)c3cccn3C)C[C@H]2C1	-1.869%
c1ccc2c(OCCN3CCn4c(nnc4C4CC4)C3)cccc2c1	6.78%
CCn1nc(C)c2ccn(CC(=O)NC(C)C)c(=O)c21	8.543%
CC(C)CCC(=O)N1C[C@H]2CCN[C@H]2C1	9.497%
CCC(=O)Nc1ccc(C(C)Nc2nc3c(cnn3C)c(=O)[nH]2)cc1 (configuration not stated)	7.065%
CCNC(=O)[C@@H]1C[C@H](NC(=O)Cc2ccsc2)CN1Cc1ccc(C)o1	1.653%
CC(C)c1noc(C(C)N2CCN(Cc3cccc(C#N)c3)CC2)n1 (configuration not stated)	0.8333%
COc1ccc(CC(=O)N2CCCC(n3nc(C)cc3C)C2)cc1F (configuration not stated)	1.714%
Cc1cc(N2CCC(NC(=O)C3CC3)CC2)nc(-c2ccncc2)n1	4.943%
COC(=O)N1CCC(Nc2cccc(F)c2C#N)CC1	1.064%
O=C(O)[C@@H]1CN(Cc2nc3ncccn3n2)C[C@H]1c1cccc(F)c1	-0.5128%
Cc1ccc(OCC(=O)N2CCCC(n3nc(C)nc3C)C2)cc1 (configuration not stated)	-1.724%
Cc1nc(N2CCCC2)nc2c1CCN(C(=O)NC(C)C)CC2	0%
CN1CCN(c2ncnc3c2CCN(C(=O)c2cccn2C)CC3)CC1	0%
CCS(=O)(=O)N1CCC2(CC(=O)N(c3cnn(C)c3)C2)C1 (configuration not stated)	5.473%
Cc1cccnc1CN1CC[C@H](Oc2cccc(F)c2)[C@@](C)(O)C1	14.29%
Cc1cccc(NCc2ncc(C(C)(C)C)o2)c1	1.478%
Cc1cnc(C(=O)N2CCN(c3ncc4c(n3)CCOC4)CC2)cn1	3.955%

The first 6 entries again:

* CN(C(=O)Cn1nc(-c2ccc(F)cc2)oc1=O)C1CCS(=O)(=O)C1 (configuration not stated) | -3.252%
* COCCN1CCN(C(=O)C2CC=CC2)Cc2cccnc21 | 1.622%
* O=C1CC(NCc2cccc(O)c2)CN1CCc1cccc(Cl)c1 (configuration not stated) | 1.005%
* c1cc(CN2C[C@@H]3OCCN(CCN4CCCC4)[C@@H]3C2)ccn1 | 3.922%
* Cc1c(-c2cc(C(=O)N3CCc4ncc(Cl)cc4C3)on2)cnn1C | 6.061%
* CCSCCNC(=O)c1cnc(-c2ccccc2)nc1O | 2.041%